Laboratory results reported in PMC12370185.
This is one part of the list.

Legend:
Assay in all cases: EMSA with sequencing
Settings in all cases: 10 mM Tris-Cl pH 7.5, 50 mM NaCl, 1 mM DTT, 0.25 mg/ml BSA, 2 mM MgCl2, 0.025% Nonidet P-40, 5% glycerol; 28 nM nucleosome library; 10 min on ice then 30 min …; high values mean tight binding; double strand, one strand shown
KLF4 + histone octamer = test system: KLF4 + histone octamer
OCT4 + histone octamer = test system: OCT4 + histone octamer
SOX2 + histone octamer = test system: SOX2 + histone octamer
[1] = test system: c-MYC + MAX + histone octamer

Row | Sequence | binding signal (log2 relative supershift) (KLF4 + histone octamer) | binding signal (log2 relative supershift) (OCT4 + histone octamer) | binding signal (log2 relative supershift) (SOX2 + histone octamer) | binding signal (log2 relative supershift) [1]
1 | GATGGACCCTATACGCGGCTCCTAGGAAGAGCTCCATGGCTCCCTGACTTGCTCAACTGTTTTAAACCCCCACCCCACATGGAATAAGCACACTTCACCATTCTCTCACAACAACAATTAAGTCAACTTATCTTTGAATAAGTAGCTGGGGGTGGCGGGGACACACCCCTGAAGTGTGGGTTTAGGTTTGTTTGATTGGGGCGTGTGCTGTGCCAGTCGGATAGTGTTCC | 2.27 | 0.762 | 0.985 | 1.07
2 | GATGGACCCTATACGCGGCAGAAAGAGGCATATGACTGTTTAGACATTTGAGCTGCATGCAAGGGAAGGGGTGGGTTACTCTGCTATAGAAATGTTCCCTATTTGAATAATAAGACACAACAGGGGGTGGATTATGCAAATTGGCCCCATGCCTTCTGCAACCCCAAAGGATGTAGTTAGTACCCAGAAACCAGTGACAAGAACAATGCCTGCCAGTCGGATAGTGTTCC | 1.39 | 0.347 | 2.13 | 0.493
3 | GATGGACCCTATACGCGGCCCTTTCTGCCCAAAGCAGTGTAAGGGGAGTGGTCAGGGGATGTAGAATTAGAGGCACATGGTATGATATCACTGGAACTACCCAGAGAGCACATCTCACTGACCACACCCAGCCATCCCCATTCACATTTTCTCATGCCTTACCACCTCCTCCTAGCTGTATACCTCTAGTTTGATAACTATTTTTCCTCCTGCCAGTCGGATAGTGTTCC | 2.49 | 0.285 | 0.337 | 0.384
4 | GATGGACCCTATACGCGGCATAAGGAACAAGAATTAAGTAATTGGGAAGGGCCCTGGATGCTCAGGCCACACCCACATGGGAATACCTGCCCCACATGGAGGCTCAGGCCAGCTCCACCAATCACCAATCAGCTCCTCCTCTTTCCCTAAATCGGCCTTCTCCGTCCCTCTTAGCCTATCACATTGCAAGCTCCACCTCTATTCCACGTTTGCCAGTCGGATAGTGTTCC | 2.65 | 0.329 | 0.499 | 0.739
